Assay results taken from article PMC10670193.

B1: Flag-tagged MOF (protein, UniProt O02193 1-827)
chain: MSEAELEQTPSAGHVQEQPIEEEHEPEQEPTDAYTIGGPPRTPVEDAAAELSASLDVSGSDQSAEQSLDLSGVQAEAAAESEPPAKRQHRDISPISEDSTPASSTSTSSTRSSSSSRYDDVSEAEEAPPEPEPEQPQQQQQEEKKEDGQDQVKSPGPVELEAQEPAQPQKQKEVVDQEIETEDEPSSDTVICVADINPYGSGSNIDDFVMDPDAPPNAIITEVVTIPAPLHLKGTQQLGLPLAAPPPPPPPPAAEQVPETPASPTDDGEEPPAVYLSPYIRSRYMQESTPGLPTRLAPRDPRQRNMPPPAVVLPIQTVLSANVEAISDDSSETSSSDDDEEEEEDEDDALTMEHDNTSRETVITTGDPLMQKIDISENPDKIYFIRREDGTVHRGQVLQSRTTENAAAPDEYYVHYVGLNRRLDGWVGRHRISDNADDLGGITVLPAPPLAPDQPSTSREMLAQQAAAAAAASSERQKRAANKDYYLSYCENSRYDYSDRKMTRYQKRRYDEINHVQKSHAELTATQAALEKEHESITKIKYIDKLQFGNYEIDTWYFSPFPEEYGKARTLYVCEYCLKYMRFRSSYAYHLHECDRRRPPGREIYRKGNISIYEVNGKEESLYCQLLCLMAKLFLDHKVLYFDMDPFLFYILCETDKEGSHIVGYFSKEKKSLENYNVACILVLPPHQRKGFGKLLIAFSYELSRKEGVIGSPEKPLSDLGRLSYRSYWAYTLLELMKTRCAPEQITIKELSEMSGITHDDIIYTLQSMKMIKYWKGQNVICVTSKTIQDHLQLPQFKQPKLTIDTDYLVWSPQTAAAVVRAPGNSG
B2: Flag-tagged E(z) (protein, UniProt Q9VDC6 1-879)
chain: MGSLPQLSIVKGLQQDFVPRALHRIFEEQQLRHADKVALIYQPSTTGQGMAPSQSSYRQMNERANRAARLLVAETHGRFLQPNSDGDFIVAVCMQPSEGLVTTLLAIWKAGGAYLPIDPSFPANRIHHILLEAKPTLVIRDDDIDAGRFQGTPTLSTTELYAKSLQLAGSNLLSEEMLRGGNDHIAIVLYTSGSTGVPKGVRLPHESILNRLQWQWATFPYTANEAVSVFKTALTFVDSIAELWGPLMCGLAILVVPKAVTKDPQRLVALLERYKIRRLVLVPTLLRSLLMYLKMEGGGAAQKLLYNLQIWVCSGEPLSVSLASSFFDYFDEGVHRLYNFYGSTEVLGDVTYFACESKKQLSLYDNVPIGIPLSNTVVYLLDADYRPVKNGEIGEIFASGLNLAAGYVNGRDPERFLENPLAVEKKYARLYRTGDYGSLKNGSIMYEGRTDSQVKIRGHRVDLSEVEKNVAELPLVDKAIVLCYHAGQVDQAILAFVKLRDDAPMVTEMQMEARLKDKLADYMTPQVVILEHVPLLVNGKVDRQALLKTYETANNNEGDSSIVLDFDYSQVPEDLKLTARDLFETVGGVIGRSTRATLAPHSNFYELGGNSLNSIFTVTLLREKGYNIGISEFIAAKNLGEIIEKMAANHDAVQLEEESLNACPHLKMEAVPLRLEHRQEVIDIIVASFYNKADLEQWLKPGVLRTDYSDILNDIWNVLVERDLSFVVYDTNTDRIIGTALNFDARNEPEVDIKSKLLIVFEFLEFCEGPIRDNYLPKGLNQILHSFMMGTAEKLNPRENIACMHFMEHEVLRVAREKQFAGIFTTNTSPLTQQLADVYHYKTLLNFQVNEYVHSDGSRPFGDAPDEQRAIVHWKEVGK
B3: Flag-tagged Su(z)12 (protein, UniProt Q9NJG9 1-900)
chain: MAPAKKREKDSNPDGSAANGIIGLTHGAPDASNAGSTVPPTAEGQVKLNGHQQEQELFLQAFEKPTQIYRYLRNRHETNPIFLNRTLSYMKERMSRNNKKRISFQVNSMLESITQKSEAVSQNYLHVIYDSLHEKLPARLDNESGEDLLQEQLLCEAGESVSVETTLYKITRSKRKDSTLDFQELLSKCSQIVYNPKDRVGEHATISIPLQTMRPMGEQHTLYKLLFRIKVLSPSTCNDENAETPPNKRSRPNEKMFGSELILYEKSSGFITEGEYEAMLQPLNSTSIKSFSPKKCTWETMPDSYIPLSLTYDVYQQSPMLKFHLTLSNEQLPEMISAPELQRYVQHLDAVAEMNYNNNNYNNNNNCSGLKNGSGGGNSTVCKTTPEHIQIVYNFMYSNNTRQQTEYTQELNCPWCGLDCLRLYALLKHLKLCHARFNFTYQPAGSGARIDVTINDAYDGSYAGSPYDLAGPSGSSFARTCGPVRRTSVTSLMVCRPRRQKTCLDEFLELDEDEISNQRSYITGHNRLYHHTETCLPVHPKELDIDSEGESDPLWLRQKTIQMIDEFSDVNEGEKELMKLWNLHVMRHGFVGDCQLPIACEMFLDAKGTEIVRKNLYRNFILHMCSLFDYGLIAAETVYKTVQKLQGLLSKYAAGQELMQRQREEQLKYWLDVGMHKKQEDPKTLKSPQKPAPPADQASTSSASTSGSGSGSSSMQPPKRMPAHLKRGSAASSPGVQSKGTENGTNGSNSSSSNSKNVAKKSADQPLSTLANTRERRSEYGQKRNVSGSRLAATPASKRKLSSKDNTVLNKRQRYSDGSPGTGIGNGHGGGSGSGANRNKSNNHSLPATSNNASSSSSNSKRAIARRRSTSERTKASGSTGGGAGGVRTRLSVPAKYERR

These binders were tested against GFP-Bonus (Drosophila) (assay: co-IP; GFP-Trap beads from lysate of S2 cells co-expressing GFP-Bonus and a Flag-tagged protein; 20 mM Tris-HCl pH 7.4, 150 mM NaCl, 0.2% NP-40, 0.2% Triton-X100, 5% glycerol, 20 mM NEM; 4 °C; Western blot; lysate without GFP-Bonus as negative control).

binding, binds:
B1, B2, B3

These are yes or no findings as the source states them, for the method shown. Binding seen in cells or lysates may run through a third protein. A result given as binding can be weak or reduced; the word gives no strength. Sequences can lack the tags named with a protein.
